Reference: PubChem BioAssay AID256 (DTP/NCI, 2004)
The list shows only some results of the screen, not a fair sample: it is rich in T/C values a quarter to a half above the control, in often repeated tests (any T/C) and in doses without a T/C. Other doses and runs of a compound stand elsewhere. T/C is the treated group as % of the vehicle group. Some entries give survivors of the animals treated and no T/C: the source holds a T/C of zero for them, seemingly a mark for toxic or unscored doses. Some doses without a T/C left all or most animals alive at the check, yet need not have been tolerated: the source hardly ever lists a survival T/C far under the control, and the zero likely stands for such cases as well. Counts of survivors are from the toxicity check (mostly the fifth day) where no day follows; animals may have died later. Schedule codes are those of the source, read here as Q, the interval in days (D) or hours (H), X, the number of doses. For survival time, the PubChem record calls one and a half times the control and up active, and a quarter to a half above the control has no call in these data; cut-offs in other NCI protocols can differ. Some doses were run more than once; the values are given in rising order.

Tested on: CD2F1 mice, L1210 leukemia ip, survival T/C
Test: NCI In Vivo Anticancer Drug Screen. Data for tumor model L1210 Leukemia (intraperitoneal) in CD2F1 (CDF1) mice
Conditions: higher T/C = longer survival
Experimental: The antitumor activity of compounds was measured in mice bearing transplantable tumors. Survival or tumor size were measured and the results are expressed as the measurement made in the treated group (T) divided by the measurement made in the vehicle treated control group (C). The tumor model used in this assay is L1210 Leukemia (intraperitoneal) in CD2F1 (CDF1) mice

[1] = T/C endpoint: mean survival time, dose: 100.0 mg/kg/injection, schedule: Q04DX003 (ip), vehicle: saline
[2] = T/C endpoint: mean survival time, dose: 400.0 mg/kg/injection, schedule: Q04DX003 (ip), vehicle: saline
[3] = T/C endpoint: mean survival time, dose: 200.0 mg/kg/injection, schedule: Q04DX003 (ip), vehicle: saline with Tween-80
[4] = T/C endpoint: mean survival time, dose: 400.0 mg/kg/injection, schedule: Q04DX003 (ip), vehicle: saline with Tween-80
[5] = T/C endpoint: mean survival time, dose: 200.0 mg/kg/injection, schedule: Q01DX001 (ip), vehicle: saline with Tween-80
[6] = T/C endpoint: mean survival time, dose: 400.0 mg/kg/injection, schedule: Q01DX001 (ip), vehicle: saline with Tween-80
[7] = T/C endpoint: mean survival time, dose: 300.0 mg/kg/injection, schedule: Q01DX001 (ip), vehicle: saline

For CN(Cc1ccccc1)/N=N/c1nc[nH]c1C(N)=O, the T/C (T/C endpoint: mean survival time, dose: 64.5 mg/kg/injection, schedule: Q01DX009 (ip), vehicle: Klucel (hydroxypropylcellulose) (HPC)) was 136 % of control, the T/C (T/C endpoint: median survival time, dose: 32.0 mg/kg/injection, schedule: Q03HX024 (ip), vehicle: saline with Tween-80) was 148 % of control and the T/C (T/C endpoint: median survival time, dose: 64.0 mg/kg/injection, schedule: Q01DX009 (ip), vehicle: saline with Tween-80) was 132 % of control. For the same molecule, the T/C (T/C endpoint: median survival time, dose: 64.0 mg/kg/injection, schedule: Q03HX016 (ip), vehicle: saline with Tween-80) was 142 % of control, the T/C (T/C endpoint: median survival time, dose: 64.0 mg/kg/injection, schedule: Q03HX024 (ip), vehicle: saline with Tween-80) was 129 % of control and the T/C (T/C endpoint: median survival time, dose: 128.0 mg/kg/injection, schedule: Q01DX009 (ip), vehicle: saline with Tween-80) was 129 % of control. For the same molecule, the T/C (T/C endpoint: median survival time, dose: 256.0 mg/kg/injection, schedule: Q04DX003 (ip), vehicle: saline with Tween-80) was 131 % of control, the survivor count (T/C endpoint: median survival time, dose: 512.0 mg/kg/injection, schedule: Q01DX009 (ip), vehicle: saline with Tween-80) was 8 of 10 and the T/C (T/C endpoint: median survival time, dose: 512.0 mg/kg/injection, schedule: Q04DX003 (ip), vehicle: saline with Tween-80) was 125 % of control.

O=S(=O)(O)Sc1ccccc1 was tested, and the survivor count [1] was 2 of 6, the survivor count (T/C endpoint: mean survival time, dose: 200.0 mg/kg/injection, schedule: Q04DX003 (ip), vehicle: saline) was 0 of 6 and the survivor count [2] was 0 of 6.

Cc1cc(C)c(C)c(Br)c1 was tested, and the survivor count (T/C endpoint: mean survival time, dose: 200.0 mg/kg/injection, schedule: Q01DX009 (ip), vehicle: saline sonified) was 2 of 6, the survivor count [3] was 1 of 6 and the survivor count (T/C endpoint: mean survival time, dose: 400.0 mg/kg/injection, schedule: Q01DX009 (ip), vehicle: saline sonified) was 0 of 6.

C=CC[As](=O)(O)CCC was tested, and the survivor count (T/C endpoint: mean survival time, dose: 200.0 mg/kg/injection, schedule: Q01DX009 (ip), vehicle: saline with Tween-80) was 0 of 6 and the survivor count (T/C endpoint: mean survival time, dose: 400.0 mg/kg/injection, schedule: Q01DX009 (ip), vehicle: saline with Tween-80) was 0 of 6.

With Cc1ccc(Cl)cc1[NH-].Cc1ccc(Cl)cc1[NH-].[Cl][Pt+2][Cl] the survivor count [4] was 0 of 6.

With Cn1c(-c2ccccc2)nc2c(N)ncnc21 the survivor count [5] was 6 of 6.

For Nc1cc(NCc2ccco2)ncn1, the survivor count (T/C endpoint: mean survival time, dose: 150.0 mg/kg/injection, schedule: Q01DX009 (ip), vehicle: Klucel (hydroxypropylcellulose) (HPC)) was 3 of 6 and the survivor count (T/C endpoint: mean survival time, dose: 300.0 mg/kg/injection, schedule: Q01DX009 (ip), vehicle: Klucel (hydroxypropylcellulose) (HPC)) was 0 of 6.

In the case of [O-][n+]1c(Cl)nc(Cl)c(Cl)c1C(Cl)(Cl)Cl, the survivor count (T/C endpoint: mean survival time, dose: 50.0 mg/kg/injection, schedule: Q04DX003 (ip), vehicle: other) is reported as 2 of 3.

With O=C(Oc1ccc(=O)[nH]n1)c1ccccc1 the survivor count (T/C endpoint: mean survival time, dose: 100.0 mg/kg/injection, schedule: Q04DX002 (ip), vehicle: saline with Tween-80) was 3 of 3.

With Nc1nc2c(ncn2-c2ccccc2F)c(=O)[nH]1 the survivor count [5] was 3 of 6 and the survivor count [6] was 1 of 6.

O=C1CN=C(c2ccccn2)c2cc(Cl)ccc2N1 was tested, and the survivor count (T/C endpoint: mean survival time, dose: 600.0 mg/kg/injection, schedule: Q01DX009 (ip), vehicle: saline with Tween-80) was 0 of 6.

With Cc1ccc(NC(=O)NO)cc1 the survivor count (T/C endpoint: mean survival time, dose: 140.0 mg/kg/injection, schedule: Q03HX024 (ip), vehicle: saline with Tween-80) was 1 of 8 and the survivor count (T/C endpoint: mean survival time, dose: 210.0 mg/kg/injection, schedule: Q03HX024 (ip), vehicle: saline with Tween-80) was 0 of 8.

NC(CCNCCc1ccccc1)CNCCc1ccccc1 (centres undefined) was tested, and the survivor count [7] was 0 of 6.

With O=C1C=CC(=O)c2ccccc21 the survivor count (T/C endpoint: mean survival time, dose: 5.0 mg/kg/injection, schedule: Q04DX003 (ip), vehicle: saline with Tween-80) was 5 of 6, the survivor count (T/C endpoint: mean survival time, dose: 10.0 mg/kg/injection, schedule: Q04DX003 (ip), vehicle: saline with Tween-80) was 0 of 6 and the survivor count (T/C endpoint: mean survival time, dose: 20.0 mg/kg/injection, schedule: Q04DX003 (ip), vehicle: saline with Tween-80) was 0 of 6. The survivor count (T/C endpoint: mean survival time, dose: 40.0 mg/kg/injection, schedule: Q04DX003 (ip), vehicle: saline with Tween-80) was 0 of 6, the survivor count (T/C endpoint: mean survival time, dose: 100.0 mg/kg/injection, schedule: Q04DX003 (ip), vehicle: saline with Tween-80) was 0 of 6 and the survivor count [3] was 0 of 6. For the same molecule, the survivor count [4] was 0 of 6.

With C=C1C(=O)OC2CC3(C)OC3CC/C(C)=C/C(OC(C)=O)C12 (centres undefined) the survivor count [4] was 0 of 6.

For c1ccc(-c2ccc(C3=NC(c4ccccc4)N4C3C4c3ccccc3)cc2)cc1 (centres undefined), the survivor count (T/C endpoint: mean survival time, dose: 25.0 mg/kg/injection, schedule: Q01DX009 (ip), vehicle: saline with Tween-80) was 6 of 6, the survivor count (T/C endpoint: mean survival time, dose: 100.0 mg/kg/injection, schedule: Q01DX001 (ip), vehicle: saline with Tween-80) was 0 of 6 and the survivor count [5] was 0 of 6. The survivor count [6] was 0 of 6.

For CN(C)CCCN1c2ccccc2Sc2ccc(Cl)cc21, the survivor count (T/C endpoint: mean survival time, dose: 50.0 mg/kg/injection, schedule: Q01DX009 (ip), vehicle: saline with Tween-80) was 2 of 6, the survivor count [1] was 6 of 6 and the survivor count [2] was 2 of 6. The T/C (T/C endpoint: median survival time, dose: 50.0 mg/kg/injection, schedule: Q01DX001 (ip), vehicle: water) was 125 % of control.

In the case of CC1=CC(=O)C(CCC#N)C(C)(C)C1 (centres undefined), the survivor count (T/C endpoint: mean survival time, dose: 200.0 mg/kg/injection, schedule: Q04DX002 (ip), vehicle: saline with Tween-80) is reported as 0 of 3 and the survivor count (T/C endpoint: mean survival time, dose: 400.0 mg/kg/injection, schedule: Q04DX002 (ip), vehicle: saline with Tween-80) is reported as 0 of 3.

CO[C@]12[C@@H](COC(N)=O)C3=C(C(=O)C(C)=C(NCc4ccco4)C3=O)N1C[C@@H]1[C@H]2N1C (some centres undefined) was tested, and the T/C (T/C endpoint: mean survival time, dose: 12.0 mg/kg/injection, schedule: Q01DX001 (ip), vehicle: distilled water + Tween-80) was 125 % of control, the T/C (T/C endpoint: mean survival time, dose: 24.0 mg/kg/injection, schedule: Q01DX001 (ip), vehicle: distilled water + Tween-80) was 133 and 136 % of control and the T/C (T/C endpoint: mean survival time, dose: 36.0 mg/kg/injection, schedule: Q01DX001 (ip), vehicle: distilled water + Tween-80) was 127 % of control.

For CS(=O)(=O)OCCNC(=O)N(CCCl)N=O, the T/C (T/C endpoint: mean survival time, dose: 1.56 mg/kg/injection, schedule: Q01DX009 (ip), vehicle: water) was 125 % of control, the T/C (T/C endpoint: mean survival time, dose: 5.0 mg/kg/injection, schedule: Q01DX001 (ip), vehicle: distilled water + Tween-80) was 127 % of control and the T/C (T/C endpoint: mean survival time, dose: 10.0 mg/kg/injection, schedule: Q01DX001 (ip), vehicle: distilled water + Tween-80, evaluated on day 30) was 141 % of control. For the same molecule, the T/C (T/C endpoint: mean survival time, dose: 10.0 mg/kg/injection, schedule: Q01DX001 (ip), vehicle: distilled water + Tween-80, evaluated on day 45) was 141 % of control, the survivor count (T/C endpoint: mean survival time, dose: 12.5 mg/kg/injection, schedule: Q01DX009 (ip), vehicle: water) was 6 of 6 and the survivor count (T/C endpoint: mean survival time, dose: 25.0 mg/kg/injection, schedule: Q01DX009 (ip), vehicle: water) was 4 of 6. The survivor count (T/C endpoint: mean survival time, dose: 50.0 mg/kg/injection, schedule: Q01DX009 (ip), vehicle: water) was 0 of 6, the survivor count (T/C endpoint: mean survival time, dose: 80.0 mg/kg/injection, schedule: Q01DX001 (ip), vehicle: distilled water + Tween-80) was 4 of 6 and the survivor count (T/C endpoint: mean survival time, dose: 100.0 mg/kg/injection, schedule: Q01DX009 (ip), vehicle: water) was 0 of 6. For the same molecule, the survivor count (T/C endpoint: mean survival time, dose: 200.0 mg/kg/injection, schedule: Q01DX009 (ip), vehicle: water) was 0 of 6.

In the case of O=C(SCCNCCNC1CC2CCC1C2)c1ccccc1 (centres undefined), the survivor count (T/C endpoint: mean survival time, dose: 75.0 mg/kg/injection, schedule: Q01DX001 (ip), vehicle: saline) is reported as 0 of 6.

With N#CC(C#N)CN(C1=NCCO1)c1cccc2c1CCCC2 the survivor count [3] was 6 of 6.

NC(=O)c1ccccc1N=NN(CCF)CCF was tested, and the survivor count (T/C endpoint: mean survival time, dose: 18.0 mg/kg/injection, schedule: Q04DX003 (ip), vehicle: saline with Tween-80) was 4 of 6.

For CC1(C)N=C(N)N=C(N)N1c1cccc(CCCCc2ccc(S(=O)(=O)F)cc2)c1, the survivor count (T/C endpoint: mean survival time, dose: 50.0 mg/kg/injection, schedule: Q01DX009 (ip), vehicle: saline) was 1 of 6, the survivor count (T/C endpoint: mean survival time, dose: 100.0 mg/kg/injection, schedule: Q01DX009 (ip), vehicle: saline) was 1 of 6 and the survivor count (T/C endpoint: mean survival time, dose: 200.0 mg/kg/injection, schedule: Q01DX009 (ip), vehicle: saline) was 0 of 6. The survivor count (T/C endpoint: mean survival time, dose: 400.0 mg/kg/injection, schedule: Q01DX009 (ip), vehicle: saline) was 0 of 6.

In the case of CN(C)C(c1ccccc1)C(O)c1ccccc1 (centres undefined), the survivor count [7] is reported as 0 of 6.

Cc1c(N=Nc2ccc(N(C)C)cc2)cc[n+]([O-])c1C was tested, and the survivor count [4] was 4 of 6.
